No constants are given. Whether binding was seen depends on the method and setting. Binding seen in cells or lysates may run through a third protein. Binding can be weak; no strength is given.
Legend:
[1] = target: T1, endogenous DREAM (mouse (endogenous in mouse brain and N2a cells)) (UniProt Q9QXT8); test: co-IP; whole cell extracts (200 ug) of N2a cells; IP with 5 ug mouse monoclonal anti-DREAM 1B1, western blot with anti-PS2
T1 sequence: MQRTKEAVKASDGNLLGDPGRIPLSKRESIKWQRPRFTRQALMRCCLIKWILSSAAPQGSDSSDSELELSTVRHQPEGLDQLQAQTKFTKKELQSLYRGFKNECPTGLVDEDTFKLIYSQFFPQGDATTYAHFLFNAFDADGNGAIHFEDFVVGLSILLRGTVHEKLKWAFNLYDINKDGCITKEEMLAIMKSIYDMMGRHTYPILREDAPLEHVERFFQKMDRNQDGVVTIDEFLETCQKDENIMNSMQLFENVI

[2] = target: T1, endogenous DREAM (mouse (endogenous in mouse brain and N2a cells)); test: co-IP; whole cell extracts (200 ug) of mouse hippocampus and cerebral cortex; IP with 5 ug mouse monoclonal anti-DREAM 1B1, western blot with anti-PS2

In the case of “C-terminal PS2 fragment (Ct-PS2), endogenous (domain or fragment)”, the binding [1] was “binds” and the binding [2] was “binds”.

From publication PMC6287014
